Measurements reported in PubChem BioAssay AID1053208 (Peter MacCallum Cancer Centre, 2014).
The deposit covers about 17,000 reagents; this is a random part of them. 788 of them (4.7%) were called active. 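Calls rest on z-score classes alone; an extra cut-off of viability at most 70% of control was not applied to them.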 A number with no mark means an inactive call. The numbers tell different reagents against one gene apart. Further read-outs or replicates are left out here.

Screen: 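Find knock-downs that sensitise mouse osteosarcoma cells to doxorubicin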 (primary screen)
Cell system: mouse osteosarcoma cells, early-passage culture from an engineered mouse model of fibroblastic bone tumour
Reagent: siRNA pool against mouse genes, 40 nM
Time to read-out: about 120 h (48 h before drug, then 72 h with drug)
Conditions: doxorubicin 100 nM for 72 h, roughly 30-40% inhibitory dose
Measured: 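Viability read as ATP luminescence after 72 h of 100 nM doxorubicin or none, duplicate wells averaged, scaled to non-targeting siRNA, then expressed as robust z-scores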
Direction: viability z-score with doxorubicin: higher = more viable cells under doxorubicin; viability z-score without drug: higher = more viable cells with knock-down alone
Hit rule: 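Called active if knock-down leaves viability unchanged without drug (z within -2 to 2) but lowers it with doxorubicin (z at or under -2)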

The opening 2 records, to show the layout:
{"Target gene": "Abo", "reagent no.": 1, "combined z-score class": "no change with or without drug", "viability z-score with doxorubicin": -0.79, "viability z-score without drug": 0.17}
{"Target gene": "Ptges3 (prostaglandin E synthase 3)", "reagent no.": 1, "combined z-score class": "low cell count with doxorubicin only (active)", "viability z-score with doxorubicin": -2.59, "viability z-score without drug": -0.51}

The list itself, from the start:
{"Target gene": "Abo", "reagent no.": 1, "combined z-score class": "no change with or without drug", "viability z-score with doxorubicin": -0.79, "viability z-score without drug": 0.17}
{"Target gene": "Ptges3 (prostaglandin E synthase 3)", "reagent no.": 1, "combined z-score class": "low cell count with doxorubicin only (active)", "viability z-score with doxorubicin": -2.59, "viability z-score without drug": -0.51}
{"Target gene": "Bicd2 (BICD cargo adaptor 2)", "reagent no.": 1, "combined z-score class": "no change with or without drug", "viability z-score with doxorubicin": 1.12, "viability z-score without drug": 0.84}
{"Target gene": "Slc26a9", "reagent no.": 1, "combined z-score class": "no change with or without drug", "viability z-score with doxorubicin": 0.34, "viability z-score without drug": 1.69}
{"Target gene": "Bag1 (BCL2-associated athanogene 1)", "reagent no.": 1, "combined z-score class": "high cell count with doxorubicin only", "viability z-score with doxorubicin": 3.04, "viability z-score without drug": 1.85}
{"Target gene": "Cpne3 (copine III)", "reagent no.": 1, "combined z-score class": "no change with or without drug", "viability z-score with doxorubicin": -0.22, "viability z-score without drug": -0.51}
{"Target gene": "A930025A13Rik (RIKEN cDNA A930025A13 gene)", "reagent no.": 1, "combined z-score class": "no change with or without drug", "viability z-score with doxorubicin": 0.34, "viability z-score without drug": -0.51}
{"Target gene": "Klrb1b (killer cell lectin-like receptor subfamily B member 1B)", "reagent no.": 1, "combined z-score class": "no change with or without drug", "viability z-score with doxorubicin": -0.67, "viability z-score without drug": -1.01}
{"Target gene": "Klrb1b (killer cell lectin-like receptor subfamily B member 1B)", "reagent no.": 2, "combined z-score class": "no change with or without drug", "viability z-score with doxorubicin": -0.22, "viability z-score without drug": 0.67}
{"Target gene": "Or5d18 (olfactory receptor family 5 subfamily D member 18)", "reagent no.": 1, "combined z-score class": "no change with or without drug", "viability z-score with doxorubicin": -0.56, "viability z-score without drug": 0.51}
{"Target gene": "Ca1 (carbonic anhydrase 1)", "reagent no.": 1, "combined z-score class": "no change with or without drug", "viability z-score with doxorubicin": -0.79, "viability z-score without drug": -0.51}
{"Target gene": "Mogat1 (monoacylglycerol O-acyltransferase 1)", "reagent no.": 1, "combined z-score class": "no change with or without drug", "viability z-score with doxorubicin": 1.35, "viability z-score without drug": -0.17}
{"Target gene": "Or5ae1 (olfactory receptor family 5 subfamily AE member 1)", "reagent no.": 1, "combined z-score class": "no change with or without drug", "viability z-score with doxorubicin": 0.67, "viability z-score without drug": -1.52}
{"Target gene": "Cfap68 (cilia and flagella associated protein 68)", "reagent no.": 1, "combined z-score class": "no change with or without drug", "viability z-score with doxorubicin": 1.12, "viability z-score without drug": -0.51}
{"Target gene": "Nkap (NFKB activating protein)", "reagent no.": 1, "combined z-score class": "no change with or without drug", "viability z-score with doxorubicin": 1.24, "viability z-score without drug": 1.18}
{"Target gene": "Cks1b (CDC28 protein kinase 1b)", "reagent no.": 1, "combined z-score class": "no change with or without drug", "viability z-score with doxorubicin": 0.45, "viability z-score without drug": 1.18}
{"Target gene": "Gpr22 (G protein-coupled receptor 22)", "reagent no.": 1, "combined z-score class": "high cell count without drug only", "viability z-score with doxorubicin": 0, "viability z-score without drug": 2.19}
{"Target gene": "Nt5c1b (5'-nucleotidase, cytosolic IB)", "reagent no.": 1, "combined z-score class": "high cell count with doxorubicin only", "viability z-score with doxorubicin": 2.81, "viability z-score without drug": 1.18}
{"Target gene": "Gpr50 (G-protein-coupled receptor 50)", "reagent no.": 1, "combined z-score class": "no change with or without drug", "viability z-score with doxorubicin": 0.11, "viability z-score without drug": 0.84}
